Experiments:
[1] = test system: ponies; test: effect of dietary fructan carbohydrates on normal and laminitic ponies; format: in vivo
Description: Eleven adult, native breed ponies were used in the diet study; 5 normals and 6 predisposed to laminitis (asymptomatic at the time of the study). A basal hay diet was fed for 2 weeks, prior to the inclusion of inulin (sourced from chicory root; 3 g/kg body weight per day), fed in 3 equal feeds. The daily forage ration also included ⅔ hay, by weight, and ⅓ Readigrass® (to act as a source of amino acids). Fecal and blood samples were taken during both diets to measure amine concentration (by HPLC and LC-MS, respectively) and fecal pH.

[2] = test system: equine cecal contents; test: in vitro model of equine hindgut, carbohydrate overload: pH and amine production

inulin
faecal pH ([1]; 24 hours after beginning of inulin diet (3 g/kg per day), from mean 6.9±0.1 on basal diet, p<0.05): 6.2±0.1
plasma concentrations of the vasoactive amines ([1]; inulin diet, FIG. 13, LC-MS): increased
plasma phenylethylamine concentration ([1]; inulin diet, Wilcoxon signed rank test P=0.034): significant increase
concentrations of the caecal-derived amines phenylethylamine, isoamylamine, putriscine and cadaverine ([2]; end of 24 hour incubation, carbohydrate 1 g/100 mL, compared to control, HPLC): significantly greater concentrations
pH in the model system ([2]; incubated 24 h with carbohydrate 1 g/100 mL, compared with control without added carbohydrate): fell significantly

Reference: patent publication US20090232853A1, “TREATMENT OF LAMINITIS” (priority 2005, published 2009)
